These are yes or no findings as the source states them, for the method shown. Binding seen in cells or lysates may run through a third protein. Some entries that bind do so weakly or less than the wild type. For some of these results: Sequences can lack the tags named with a protein.
T1: Flag-Trim13 (mouse) (UniProt Q9CYB0)
T1 sequence: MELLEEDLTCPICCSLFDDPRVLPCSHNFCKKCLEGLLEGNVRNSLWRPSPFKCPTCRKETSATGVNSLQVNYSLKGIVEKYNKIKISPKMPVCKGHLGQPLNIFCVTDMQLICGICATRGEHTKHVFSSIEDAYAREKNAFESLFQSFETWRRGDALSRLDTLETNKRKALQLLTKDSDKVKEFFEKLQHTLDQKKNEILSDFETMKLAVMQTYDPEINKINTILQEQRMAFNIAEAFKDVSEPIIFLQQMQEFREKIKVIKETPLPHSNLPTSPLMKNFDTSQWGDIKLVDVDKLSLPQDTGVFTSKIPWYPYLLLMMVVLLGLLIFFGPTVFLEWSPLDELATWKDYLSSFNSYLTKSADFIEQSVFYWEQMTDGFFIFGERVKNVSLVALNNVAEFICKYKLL

The chains behind the UniProt entries cited, without tags or fusion partners.
UniProt P68400: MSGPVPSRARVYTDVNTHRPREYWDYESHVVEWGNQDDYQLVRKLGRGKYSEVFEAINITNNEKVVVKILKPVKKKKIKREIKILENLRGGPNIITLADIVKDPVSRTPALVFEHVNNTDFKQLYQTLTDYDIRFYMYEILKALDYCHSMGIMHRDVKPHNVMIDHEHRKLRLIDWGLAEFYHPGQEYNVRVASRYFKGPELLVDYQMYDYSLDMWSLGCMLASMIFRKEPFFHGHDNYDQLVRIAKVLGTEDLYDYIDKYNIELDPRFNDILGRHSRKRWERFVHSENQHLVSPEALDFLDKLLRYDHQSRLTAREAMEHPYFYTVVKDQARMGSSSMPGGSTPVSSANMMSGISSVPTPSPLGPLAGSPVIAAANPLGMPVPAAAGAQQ
UniProt P12813: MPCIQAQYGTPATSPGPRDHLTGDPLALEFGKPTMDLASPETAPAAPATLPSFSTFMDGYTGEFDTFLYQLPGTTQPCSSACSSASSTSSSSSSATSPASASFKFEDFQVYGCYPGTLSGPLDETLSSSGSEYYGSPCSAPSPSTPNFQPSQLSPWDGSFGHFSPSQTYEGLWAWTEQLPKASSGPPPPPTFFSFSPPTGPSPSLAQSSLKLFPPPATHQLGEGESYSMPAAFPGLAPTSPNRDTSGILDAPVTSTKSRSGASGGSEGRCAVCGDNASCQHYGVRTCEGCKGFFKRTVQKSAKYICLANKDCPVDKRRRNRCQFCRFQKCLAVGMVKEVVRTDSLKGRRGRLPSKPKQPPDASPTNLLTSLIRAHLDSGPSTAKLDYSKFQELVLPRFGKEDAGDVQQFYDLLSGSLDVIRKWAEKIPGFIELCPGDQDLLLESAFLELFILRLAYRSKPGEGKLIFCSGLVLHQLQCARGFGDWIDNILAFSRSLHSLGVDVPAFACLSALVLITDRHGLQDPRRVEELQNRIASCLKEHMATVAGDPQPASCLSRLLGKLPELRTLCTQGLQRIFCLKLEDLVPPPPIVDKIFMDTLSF

B1: Trim13 (as transfected with Flag-Nur77 in Fig. 2g) (enzyme, UniProt Q9CYB0 1-407)
chain: T1 sequence

Legend:
Assay in all cases: co-IP; HeLa cells transfected with plasmids, lysates 36 h after transfection in RIPA buffer (20 mM HEPES pH 7.5, 1% NP-40, 0.1% SDS, 0.5% deoxycholic acid, 150 mM NaCl, 10 uM NaF, protease inhibitors); antibody overnight, protein A-Sepharose 1 h; western blot
Myc-CK2α = Myc-CK2α (UniProt P68400)
[1] = target: Flag-tagged Nur77 (mouse) (UniProt P12813)
Flag-Trim13 (mouse) = target: T1, Flag-Trim13 (mouse)

Molecule	binding [1]	further results
Flag-tagged Nur77 (from UniProt P12813 1-601)		binding (Myc-CK2α): binds
Myc-CK2α (from UniProt P68400 1-391) (enzyme)	binds	
Nur77 (as transfected with Flag-Trim13 in Fig. 2h) (from UniProt P12813 1-601)		binding (Flag-Trim13 (mouse)): binds
B1	binds	

— article PMC6141542
